Tested on: Huh7 cells
Conditions: initial screening

Clc1ccc(C(c2ccc(Cl)cc2)N2CCNCC2)cc1 [NCGC00354584]
CC50: 15.6 µM
